# Laboratory results from the supplement of paper PMC6411743.
# Amino acid sequences for entries named in this document (tags omitted). A change or cut given only in a name is not applied to a line headed by its entry.
# UniProt O94826, whole entry: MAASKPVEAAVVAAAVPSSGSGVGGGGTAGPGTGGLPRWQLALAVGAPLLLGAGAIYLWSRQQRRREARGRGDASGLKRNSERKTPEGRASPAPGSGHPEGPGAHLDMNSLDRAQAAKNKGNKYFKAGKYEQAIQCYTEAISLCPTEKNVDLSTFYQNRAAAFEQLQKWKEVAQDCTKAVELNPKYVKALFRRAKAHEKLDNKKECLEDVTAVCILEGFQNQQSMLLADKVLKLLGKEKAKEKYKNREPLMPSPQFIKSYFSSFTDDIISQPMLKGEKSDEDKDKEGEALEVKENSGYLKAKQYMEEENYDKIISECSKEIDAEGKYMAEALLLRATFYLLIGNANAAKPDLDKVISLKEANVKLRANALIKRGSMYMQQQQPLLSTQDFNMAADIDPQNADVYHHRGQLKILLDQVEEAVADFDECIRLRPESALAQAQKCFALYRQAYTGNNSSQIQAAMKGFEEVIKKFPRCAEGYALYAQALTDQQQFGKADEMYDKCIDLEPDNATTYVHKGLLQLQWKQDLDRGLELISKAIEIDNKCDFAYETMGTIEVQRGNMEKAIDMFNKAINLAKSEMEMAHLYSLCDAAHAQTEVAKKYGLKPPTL
# UniProt P00167, whole entry: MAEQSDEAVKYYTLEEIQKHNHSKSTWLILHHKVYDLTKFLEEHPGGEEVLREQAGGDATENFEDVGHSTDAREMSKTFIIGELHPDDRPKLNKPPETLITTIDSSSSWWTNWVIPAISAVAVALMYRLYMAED
# UniProt O60927: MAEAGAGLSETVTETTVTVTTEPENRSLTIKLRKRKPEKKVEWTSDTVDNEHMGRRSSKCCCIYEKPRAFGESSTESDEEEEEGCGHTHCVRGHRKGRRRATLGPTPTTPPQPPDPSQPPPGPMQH
# UniProt O75410: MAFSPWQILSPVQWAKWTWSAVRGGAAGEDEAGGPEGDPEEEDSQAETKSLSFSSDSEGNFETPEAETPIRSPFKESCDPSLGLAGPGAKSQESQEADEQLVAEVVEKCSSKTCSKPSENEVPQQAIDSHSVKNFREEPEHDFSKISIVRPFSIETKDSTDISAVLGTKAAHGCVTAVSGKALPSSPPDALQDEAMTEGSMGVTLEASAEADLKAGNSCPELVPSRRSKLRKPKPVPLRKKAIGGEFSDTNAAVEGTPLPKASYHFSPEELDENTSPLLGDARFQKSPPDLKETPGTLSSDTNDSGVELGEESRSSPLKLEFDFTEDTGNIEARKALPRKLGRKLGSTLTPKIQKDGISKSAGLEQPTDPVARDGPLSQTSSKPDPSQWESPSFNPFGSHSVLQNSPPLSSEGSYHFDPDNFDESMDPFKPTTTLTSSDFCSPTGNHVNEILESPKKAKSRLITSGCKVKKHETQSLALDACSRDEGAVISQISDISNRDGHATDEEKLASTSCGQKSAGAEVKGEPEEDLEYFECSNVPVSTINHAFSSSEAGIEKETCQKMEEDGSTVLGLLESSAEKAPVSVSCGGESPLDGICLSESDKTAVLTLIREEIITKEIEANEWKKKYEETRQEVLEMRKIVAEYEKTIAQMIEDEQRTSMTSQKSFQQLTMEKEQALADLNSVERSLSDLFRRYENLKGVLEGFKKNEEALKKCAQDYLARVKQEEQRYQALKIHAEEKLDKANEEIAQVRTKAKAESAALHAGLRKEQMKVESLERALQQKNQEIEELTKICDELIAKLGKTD
# UniProt O96011: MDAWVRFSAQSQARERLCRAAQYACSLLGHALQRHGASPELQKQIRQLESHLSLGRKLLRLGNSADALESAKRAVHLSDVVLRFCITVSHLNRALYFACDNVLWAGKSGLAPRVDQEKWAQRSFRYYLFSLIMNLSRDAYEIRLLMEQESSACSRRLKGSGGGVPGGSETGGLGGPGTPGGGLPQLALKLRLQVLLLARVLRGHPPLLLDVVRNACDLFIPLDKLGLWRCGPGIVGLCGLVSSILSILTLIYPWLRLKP
# ± gives the standard deviation of the averaged measurements. This is one part of the list.
# Compound: Nc1nc2c(ncn2[C@@H]2O[C@H](COP(=O)(O)OP(=O)(O)OP(=O)(O)O)[C@@H](O)[C@H]2O)c(=O)[nH]1 [guanosine triphosphate]
# Assay: NP40-soluble protein abundance relative to vehicle (solubility fold change) (ratio); higher = more soluble protein in presence of GTP
# Protocol: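 Solubility proteome profiling in Jurkat crude lysate. Lysate was treated with Mg-GTP (0.1-10 mM) for 10 min at room temperature and 3 min at 37 °C, then solubilised with 0.8% NP40 and benzonase, followed by ultracentrifugation. Proteins were quantified by TMT10 LC-MS/MS; the value is the NP40-soluble abundance relative to the NP40-processed vehicle, from 3 independent experiments.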
Target,NP40-soluble protein abundance (concentration: 0.1mM),NP40-soluble protein abundance (concentration: 0.5mM),NP40-soluble protein abundance (concentration: 1mM),NP40-soluble protein abundance (concentration: 2mM),NP40-soluble protein abundance (concentration: 4mM),NP40-soluble protein abundance (concentration: 6mM),NP40-soluble protein abundance (concentration: 8mM),NP40-soluble protein abundance (concentration: 10mM)
UniProt O94826,0.939 ± 0.039,0.949 ± 0.072,0.934 ± 0.061,0.911 ± 0.085,0.89 ± 0.061,0.904 ± 0.084,0.893 ± 0.059,0.917 ± 0.073
UniProt P00167 and related entries,0.89 ± 0.016,0.898 ± 0.04,0.892 ± 0.042,0.867 ± 0.071,0.837 ± 0.065,0.865 ± 0.076,0.821 ± 0.077,0.849 ± 0.076
PPP1R11 (UniProt O60927),1.07 ± 0.062,1.02 ± 0.1,1.06 ± 0.07,1.06 ± 0.061,1.05 ± 0.05,1.06 ± 0.097,1.07 ± 0.052,1.06 ± 0.092
UniProt O75410 and related entries,0.936 ± 0.039,0.916 ± 0.086,0.955 ± 0.087,0.905 ± 0.12,0.907 ± 0.092,0.884 ± 0.097,0.93 ± 0.095,0.934 ± 0.089
UniProt O96011 and related entries,1.01 ± 0.048,0.968 ± 0.035,0.9282 ± 0.0073,0.927 ± 0.065,0.978 ± 0.027,0.945 ± 0.013,0.942 ± 0.07,0.914 ± 0.055
